The numbers were not newly measured in patent publication US6469022B1, “Method, compositions and kits for increasing the oral bioavailability of pharmaceutical agents” (Smith Kline Beecham, Corporation, priority 1997, dated 2002), which cites them from elsewhere.

Molecules are shown by their SMILES.

With `CC(=O)O[C@H]1C(=O)[C@@]2(C)[C@H]([C@H](OC(=O)c3ccccc3)[C@]3(O)C[C@H](OC(=O)[C@H](O)[C@@H](NC(=O)c4ccccc4)c4ccccc4)C(C)=C1C3(C)C)[C@]1(OC(C)=O)CO[C@@H]1C[C@@H]2O` [paclitaxel, 5β,20-epoxy-1,2α,4,7β,10β,13α-hexa-hydroxytax-11-en-9-one 4,10-diacetate 2-benzoate 13-ester with (2R,3S)-N-benzoyl-3-phenylisoserine], the solubility in water result is reported as “only slightly soluble”.
